What follows are compounds tested on T1, PrKstD (3-ketosteroid-Δ^1-dehydrogenase) (assay: steady-state kinetics of purified enzyme (PMS/DCPIP assay, Km)).
T1 construct: His-tagged recombinant, GenBank NLT29951.1
Type: biochemical, Propionibacterium sp.

SMILES	Km
C[C@]12CCC(=O)C=C1CC[C@@H]1[C@@H]2CC[C@]2(C)C(=O)CC[C@@H]12 [compound 1, 4-androstene-3,17-dione]	9.9 ± 1.8 µM
C[C@]12CCC(=O)C=C1CC[C@H]1[C@@H]3CCC(=O)[C@@]3(C)CC[C@@]12O [compound 2, 9α-hydroxy-4-androsten-3,17-dione]	21.5 ± 2.7 µM
C[C@]12CCC(=O)C[C@@H]1CC[C@@H]1[C@@H]2CC[C@]2(C)[C@@H](O)CC[C@@H]12 [compound 5, 17β-Hydroxy-5α-androstan-3-one]	36.6 ± 3.6 µM
C[C@]12CC[C@H]3[C@@H](CCC4=CC(=O)CC[C@@H]43)[C@@H]1CCC2=O [compound 6, norandrostenedione]	138 ± 9.3 µM
CC(=O)[C@H]1CC[C@H]2[C@@H]3CCC4=CC(=O)CC[C@]4(C)[C@H]3CC[C@]12C [compound 10, progesterone]	31.9 ± 5.8 µM
C[C@]12CCC(=O)C=C1CC[C@@H]1[C@@H]2CC[C@@]2(C)[C@H]1CC[C@]2(O)C(=O)CO [compound 13, cortexolone]	20.8 ± 4.2 µM
C[C@]12CCC(=O)C=C1CC[C@@H]1[C@@H]2[C@@H](O)C[C@@]2(C)[C@H]1CC[C@]2(O)C(=O)CO [compound 15, hydrocortisone]	164 ± 11.6 µM
CC(=O)OCC(=O)[C@@]1(O)CC[C@H]2[C@@H]3CCC4=CC(=O)CC[C@]4(C)[C@H]3[C@@H](O)C[C@@]21C [compound 16, hydrocortisone acetate]	212 ± 17.2 µM
CC(=O)[C@@]1(O)CC[C@H]2[C@@H]3C[C@H](C)C4=CC(=O)CC[C@]4(C)[C@H]3[C@@H](O)C[C@@]21C [compound 17, 11β,17-dihydroxy-6α-methyl-pregn-4-ene-3,20-dione]	343 ± 42.4 µM
C[C@H]1C[C@@H]2[C@H]([C@@H](O)C[C@@]3(C)[C@H]2CC[C@]3(O)C(=O)CO)[C@@]2(C)CCC(=O)C=C12 [compound 18, 6α-methyl-hydrocortisone]	443 ± 38.1 µM
